{"source": "PubChem BioAssay AID1224830 (NIAID, 2016)", "test": "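Regulators of TLR4 signalling towards TNF-alpha in macrophage-like cells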 (primary screen)", "system": "human THP-1 monocytic leukaemia cells, TNF dual-luciferase reporter clone, PMA-differentiated to macrophage-like cells", "knock-down reagent": "siRNA pool against human genes, 50 nM", "timing": "LPS for 4 h, given about 3 days after siRNA transfection", "challenge": "bacterial LPS (TLR4 ligand), 10 ng/ml", "detection": "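Ratio of firefly to renilla light, scaled to the plate median and expressed as a robust z-score per replicate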", "scale": "TNF reporter robust z-score: higher = stronger TNF reporter response to LPS", "active means": "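Each well counts as active if its z-score is over 2.8 or under -1.5; controls are left without a call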", "note": "The deposit covers about 18,000 reagents; shown is a part drawn at random. Of all reagents, about 2,900 (16%) are marked active. 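Calls are made per well; low scores hint the gene aids the LPS response, high scores that it dampens it.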 Repeated entries: four replicate wells of each siRNA pool. Reagent sequences are not shown."}
{"gene": "LRRC31 (leucine rich repeat containing 31)", "TNF reporter robust z-score": 1.26, "call": "inactive"}
{"gene": "LRRC31 (leucine rich repeat containing 31)", "TNF reporter robust z-score": 1.35, "call": "inactive"}
{"gene": "LRRC31 (leucine rich repeat containing 31)", "TNF reporter robust z-score": 1.15, "call": "inactive"}
{"gene": "LRRC31 (leucine rich repeat containing 31)", "TNF reporter robust z-score": 1.63, "call": "inactive"}
{"gene": "UBE2J2 (ubiquitin conjugating enzyme E2 J2)", "TNF reporter robust z-score": -1.68, "call": "active"}
{"gene": "UBE2J2 (ubiquitin conjugating enzyme E2 J2)", "TNF reporter robust z-score": -1.23, "call": "inactive"}
{"gene": "UBE2J2 (ubiquitin conjugating enzyme E2 J2)", "TNF reporter robust z-score": -0.01, "call": "inactive"}
{"gene": "UBE2J2 (ubiquitin conjugating enzyme E2 J2)", "TNF reporter robust z-score": -0.87, "call": "inactive"}
{"gene": "COPS3 (COP9 signalosome subunit 3)", "TNF reporter robust z-score": 3.47, "call": "active"}
{"gene": "COPS3 (COP9 signalosome subunit 3)", "TNF reporter robust z-score": 0.94, "call": "inactive"}
{"gene": "COPS3 (COP9 signalosome subunit 3)", "TNF reporter robust z-score": 1, "call": "inactive"}
{"gene": "COPS3 (COP9 signalosome subunit 3)", "TNF reporter robust z-score": 1.64, "call": "inactive"}
{"gene": "GALNT9 (polypeptide N-acetylgalactosaminyltransferase 9)", "TNF reporter robust z-score": 0.43, "call": "inactive"}
{"gene": "GALNT9 (polypeptide N-acetylgalactosaminyltransferase 9)", "TNF reporter robust z-score": 0.93, "call": "inactive"}
{"gene": "GALNT9 (polypeptide N-acetylgalactosaminyltransferase 9)", "TNF reporter robust z-score": 0.16, "call": "inactive"}
{"gene": "GALNT9 (polypeptide N-acetylgalactosaminyltransferase 9)", "TNF reporter robust z-score": 0.69, "call": "inactive"}
{"gene": "SLC39A3", "TNF reporter robust z-score": 0.31, "call": "inactive"}
{"gene": "SLC39A3", "TNF reporter robust z-score": -0.11, "call": "inactive"}
{"gene": "SLC39A3", "TNF reporter robust z-score": -0.42, "call": "inactive"}
{"gene": "SLC39A3", "TNF reporter robust z-score": -0.32, "call": "inactive"}
{"gene": "RFX5 (regulatory factor X5)", "TNF reporter robust z-score": -1.48, "call": "inactive"}
{"gene": "RFX5 (regulatory factor X5)", "TNF reporter robust z-score": -1.31, "call": "inactive"}
{"gene": "RFX5 (regulatory factor X5)", "TNF reporter robust z-score": -1.26, "call": "inactive"}
{"gene": "RAB12 (RAB12, member RAS oncogene family)", "TNF reporter robust z-score": 0.69, "call": "inactive"}
{"gene": "RAB12 (RAB12, member RAS oncogene family)", "TNF reporter robust z-score": -0.13, "call": "inactive"}
{"gene": "RAB12 (RAB12, member RAS oncogene family)", "TNF reporter robust z-score": -0.3, "call": "inactive"}
{"gene": "RAB12 (RAB12, member RAS oncogene family)", "TNF reporter robust z-score": -0.1, "call": "inactive"}
{"gene": "BLOC1S3 (biogenesis of lysosomal organelles complex 1 subunit 3)", "TNF reporter robust z-score": -2.26, "call": "active"}
{"gene": "BLOC1S3 (biogenesis of lysosomal organelles complex 1 subunit 3)", "TNF reporter robust z-score": -1.71, "call": "active"}
{"gene": "BLOC1S3 (biogenesis of lysosomal organelles complex 1 subunit 3)", "TNF reporter robust z-score": -2.04, "call": "active"}
{"gene": "BLOC1S3 (biogenesis of lysosomal organelles complex 1 subunit 3)", "TNF reporter robust z-score": -1.83, "call": "active"}
{"gene": "PSMG1 (proteasome assembly chaperone 1)", "TNF reporter robust z-score": -0.36, "call": "inactive"}
{"gene": "PSMG1 (proteasome assembly chaperone 1)", "TNF reporter robust z-score": 0.14, "call": "inactive"}
{"gene": "PSMG1 (proteasome assembly chaperone 1)", "TNF reporter robust z-score": -0.84, "call": "inactive"}
{"gene": "PSMG1 (proteasome assembly chaperone 1)", "TNF reporter robust z-score": -0.46, "call": "inactive"}
{"gene": "PRDM6 (PR/SET domain 6)", "TNF reporter robust z-score": 1.42, "call": "inactive"}
{"gene": "PRDM6 (PR/SET domain 6)", "TNF reporter robust z-score": 0.1, "call": "inactive"}
{"gene": "PRDM6 (PR/SET domain 6)", "TNF reporter robust z-score": 0.62, "call": "inactive"}
{"gene": "PRDM6 (PR/SET domain 6)", "TNF reporter robust z-score": 0.6, "call": "inactive"}
{"gene": "ADH1B (alcohol dehydrogenase 1B (class I), beta polypeptide)", "TNF reporter robust z-score": -0.06, "call": "inactive"}
{"gene": "ADH1B (alcohol dehydrogenase 1B (class I), beta polypeptide)", "TNF reporter robust z-score": 0.75, "call": "inactive"}
{"gene": "ADH1B (alcohol dehydrogenase 1B (class I), beta polypeptide)", "TNF reporter robust z-score": -0.33, "call": "inactive"}
{"gene": "ADH1B (alcohol dehydrogenase 1B (class I), beta polypeptide)", "TNF reporter robust z-score": 0, "call": "inactive"}
{"gene": "VCX (variable charge X-linked)", "TNF reporter robust z-score": -0.78, "call": "inactive"}
{"gene": "VCX (variable charge X-linked)", "TNF reporter robust z-score": -0.55, "call": "inactive"}
{"gene": "VCX (variable charge X-linked)", "TNF reporter robust z-score": -0.1, "call": "inactive"}
{"gene": "VCX (variable charge X-linked)", "TNF reporter robust z-score": 0.1, "call": "inactive"}
{"gene": "DENR (density regulated re-initiation and release factor)", "TNF reporter robust z-score": -0.8, "call": "inactive"}
{"gene": "DENR (density regulated re-initiation and release factor)", "TNF reporter robust z-score": -0.66, "call": "inactive"}
{"gene": "DENR (density regulated re-initiation and release factor)", "TNF reporter robust z-score": -1.11, "call": "inactive"}
{"gene": "DENR (density regulated re-initiation and release factor)", "TNF reporter robust z-score": -0.95, "call": "inactive"}
{"gene": "PCDH11Y (protocadherin 11 Y-linked)", "TNF reporter robust z-score": -0.59, "call": "inactive"}
{"gene": "PCDH11Y (protocadherin 11 Y-linked)", "TNF reporter robust z-score": -0.11, "call": "inactive"}
{"gene": "PCDH11Y (protocadherin 11 Y-linked)", "TNF reporter robust z-score": -0.44, "call": "inactive"}
{"gene": "PCDH11Y (protocadherin 11 Y-linked)", "TNF reporter robust z-score": 0.79, "call": "inactive"}
{"gene": "AGRP (agouti related neuropeptide)", "TNF reporter robust z-score": -0.37, "call": "inactive"}
{"gene": "AGRP (agouti related neuropeptide)", "TNF reporter robust z-score": -0.89, "call": "inactive"}
{"gene": "AGRP (agouti related neuropeptide)", "TNF reporter robust z-score": -0.38, "call": "inactive"}
{"gene": "AGRP (agouti related neuropeptide)", "TNF reporter robust z-score": 0.48, "call": "inactive"}
{"gene": "NENF (neudesin neurotrophic factor)", "TNF reporter robust z-score": 0.33, "call": "inactive"}
{"gene": "NENF (neudesin neurotrophic factor)", "TNF reporter robust z-score": 1.44, "call": "inactive"}
{"gene": "NENF (neudesin neurotrophic factor)", "TNF reporter robust z-score": -0.02, "call": "inactive"}
{"gene": "NENF (neudesin neurotrophic factor)", "TNF reporter robust z-score": 2.3, "call": "inactive"}
